In assay [1] the target is c-fos (human (endogenous in MDA-MB-231)) (UniProt P01100). In words: co-IP; MDA-MB-231 cells cultured in normoxia or hypoxia (2% O2), lysed in RIPA buffer; 200 μg protein incubated 2 h with anti-c-fos or anti-GPER antibody and Protein A/G agarose; immunoblot of the immunocomplexes; nonspecific IgG as control.
In assay [2] the target is G protein estrogen receptor (human (endogenous in MDA-MB-231)) (UniProt Q99527). The assay is described as above.

Sequences of proteins named here, by UniProt entry; tags and fusion partners are left off.
UniProt P01100: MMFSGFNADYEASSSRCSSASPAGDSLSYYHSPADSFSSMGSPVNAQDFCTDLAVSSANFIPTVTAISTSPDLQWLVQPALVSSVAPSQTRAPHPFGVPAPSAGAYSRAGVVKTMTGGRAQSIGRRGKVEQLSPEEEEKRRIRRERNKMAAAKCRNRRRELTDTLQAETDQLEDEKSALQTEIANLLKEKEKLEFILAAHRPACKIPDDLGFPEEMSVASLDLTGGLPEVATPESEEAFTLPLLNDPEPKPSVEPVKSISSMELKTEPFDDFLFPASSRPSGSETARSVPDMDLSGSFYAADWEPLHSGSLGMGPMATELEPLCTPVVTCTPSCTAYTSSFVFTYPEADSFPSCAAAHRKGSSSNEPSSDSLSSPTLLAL
UniProt Q99527: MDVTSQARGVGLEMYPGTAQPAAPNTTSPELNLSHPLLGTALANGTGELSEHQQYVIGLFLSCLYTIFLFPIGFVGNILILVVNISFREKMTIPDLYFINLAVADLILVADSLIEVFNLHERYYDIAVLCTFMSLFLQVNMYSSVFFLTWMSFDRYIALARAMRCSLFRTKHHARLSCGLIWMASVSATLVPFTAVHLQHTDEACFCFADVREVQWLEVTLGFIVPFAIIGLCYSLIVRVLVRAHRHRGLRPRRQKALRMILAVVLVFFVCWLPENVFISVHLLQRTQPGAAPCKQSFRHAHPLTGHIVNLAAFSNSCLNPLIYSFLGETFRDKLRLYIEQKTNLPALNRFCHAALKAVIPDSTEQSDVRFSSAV
UniProt Q16665: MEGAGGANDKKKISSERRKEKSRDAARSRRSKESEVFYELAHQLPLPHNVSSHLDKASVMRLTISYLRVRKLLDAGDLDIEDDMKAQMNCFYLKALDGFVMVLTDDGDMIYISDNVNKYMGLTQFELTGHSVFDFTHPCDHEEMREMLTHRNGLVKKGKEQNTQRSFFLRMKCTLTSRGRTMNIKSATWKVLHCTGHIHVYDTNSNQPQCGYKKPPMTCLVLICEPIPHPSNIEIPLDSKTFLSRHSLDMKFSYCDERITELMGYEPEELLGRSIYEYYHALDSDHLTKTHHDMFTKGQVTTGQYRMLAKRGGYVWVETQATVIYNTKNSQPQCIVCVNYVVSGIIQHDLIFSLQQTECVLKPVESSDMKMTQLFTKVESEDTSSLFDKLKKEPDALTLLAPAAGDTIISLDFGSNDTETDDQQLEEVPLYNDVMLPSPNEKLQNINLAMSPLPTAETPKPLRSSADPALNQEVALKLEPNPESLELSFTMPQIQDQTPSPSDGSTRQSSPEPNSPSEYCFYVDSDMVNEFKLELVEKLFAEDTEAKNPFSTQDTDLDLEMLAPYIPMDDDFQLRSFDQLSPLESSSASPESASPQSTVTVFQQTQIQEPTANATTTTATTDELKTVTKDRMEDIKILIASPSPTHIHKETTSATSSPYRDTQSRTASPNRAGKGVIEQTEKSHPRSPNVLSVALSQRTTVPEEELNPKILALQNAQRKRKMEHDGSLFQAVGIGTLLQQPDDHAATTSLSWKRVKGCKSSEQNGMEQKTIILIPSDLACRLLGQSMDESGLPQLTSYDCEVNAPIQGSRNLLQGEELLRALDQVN

Results are given in words; binding and its absence hold for the method and conditions named. Binding seen in cells or lysates may run through a third protein. Some entries that bind do so weakly or less than the wild type.

Turning to “hypoxia inducible factor-1α (from UniProt Q16665 1-826)”, the binding entry in assay [1] and in assay [2] was “binds” throughout.

Values taken from PMC7418191.
